“And” between values parts separate entries of the source, which are not always exact repeats. Equal values may be shown once.
Tests used:
[1] = tested on: mitochondrial apoptosis-induced channel (MAC); assay: Patch clamp of MAC in proteoliposomes containing mitochondrial outer membranes of apoptotic FL5.12 cells; assay type: biochemical, mouse; conditions: 150 mM KCl 5 mM HEPES pH 7.4, read-out: IC50 for blockade of MAC (inhibition of conductance)
Description: Hematopoietic FL5.12 cells are a mouse leukemia cell line that enters apoptosis after withdrawal of the growth factor interleukin-3 (IL-3) (Gross, A., Jockel, […]. and Korsmeyer, S. J. (1998). Parental FL5.12 cells were cultured as previously described (Gross, A., Jockel, […]. and Korsmeyer, S. J. (1998) EMBO J. 17, 3878-85) in Iscove's Modified Eagle Media (IMEM), 10% Fetal Bovine Serum, 10% WEHI-3B supplement (filtered supernatant of WEHI-3B cells secreting IL-3). Cultures were kept below 1.5 million cells/ml. Cells were washed three times in media without IL-3 (WEHI supplement) to induce apoptosis twelve hours prior to the isolation of mitochondria (Zamzami, N., Susin, […]., Gomez-Monterrey, I., Castedo, M. and Kroemer, G. (1996). Mitochondrial control of nuclear apoptosis. Journal of Experimental Medicine. 183, 1533-44; Mootha, V., Wei, M., Buttle, K., Scorrano, L., Panoutsakopoulou, […]. and Korsmeyer, S. (2001). A reversible component of mitochondrial respiratory dysfunction in apoptosis can be rescued by exogenous cytochrome c. […]

[2] = tested on: MCC; conditions: read-out: IC50 for block of MCC; cited from earlier work

Question: For `CC(C)NCC(O)COc1cccc2ccccc12` (centres unmarked) [propranolol], which IC50 [1] is on record?
Answer: 52 µM and ~50 µM

Question: And the IC50 [2]?
Answer: ~700 µM

Source: patent US20050267128A1, “Compounds, compositions and methods of modulating the mitochondrial apoptosis-induced channel (MAC)” (priority 2004, published 2005)
